Experimental data reported in doi:10.1101/2023.09.12.557395.

Chains of the proteins cited; added tags and fusions are not shown. Lines headed by an entry give the natural chain unless they say otherwise; changes in a name come on top. Residues count along the entry.
UniProt Q9UBX2, residues 1-409: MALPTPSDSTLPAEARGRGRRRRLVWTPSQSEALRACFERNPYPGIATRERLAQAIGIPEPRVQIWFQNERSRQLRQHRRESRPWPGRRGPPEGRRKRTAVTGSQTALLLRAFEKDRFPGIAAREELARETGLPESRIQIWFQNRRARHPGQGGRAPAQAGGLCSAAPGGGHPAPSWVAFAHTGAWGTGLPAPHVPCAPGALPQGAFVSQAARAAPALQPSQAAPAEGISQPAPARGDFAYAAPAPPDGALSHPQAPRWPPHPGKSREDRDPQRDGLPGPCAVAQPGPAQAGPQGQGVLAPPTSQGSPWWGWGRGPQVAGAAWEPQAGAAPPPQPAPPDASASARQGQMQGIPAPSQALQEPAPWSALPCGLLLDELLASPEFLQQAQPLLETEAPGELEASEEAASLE

Tests used:
Assay in all cases: affinity purification with mass spectrometry
DUX4_ΔTAD (human) [1] = biological target: DUX4_ΔTAD (human) (UniProt Q9UBX2)
DUX4_ΔTAD (human) [2] = biological target: DUX4_ΔTAD (human) (UniProt Q9UBX2); remark: listed apart in the source
DUX4_ΔC (human) = biological target: DUX4_ΔC (human)

Molecule	binding (DUX4_ΔC (human))	also measured
p300 (from UniProt Q09472 1-2414)	–	binding (DUX4_ΔTAD (human) [1]): binds
Mediator of RNA polymerase II transcription subunit 25 (MED25) (protein, UniProt Q71SY5 1-747) MVPGSEGPARAGSVVADVVFVIEGTANLGPYFEGLRKHYLLPAIEYFNGGPPAETDFGGDYGGTQYSLVVFNTVDCAPESYVQCHAPTSSAYEFVTWLDGIKFMGGGGESCSLIAEGLSTALQLFDDFKKMREQIGQTHRVCLLICNSPPYLLPAVESTTYSGCTTENLVQQIGERGIHFSIVSPRKLPALRLLFEKAAPPALLEPLQPPTDVSQDPRHMVLVRGLVLPVGGGSAPGPLQSKQPVPLPPAAPSGATLSAAPQQPLPPVPPQYQVPGNLSAAQVAAQNAVEAAKNQKAGLGPRFSPITPLQQAAPGVGPPFSQAPAPQLPPGPPGAPKPPPASQPSLVSTVAPGSGLAPTAQPGAPSMAGTVAPGGVSGPSPAQLGAPALGGQQSVSNKLLAWSGVLEWQEKPKPASVDANTKLTRSLPCQVYVNHGENLKTEQWPQKLIMQLIPQQLLTTLGPLFRNSRMVQFHFTNKDLESLKGLYRIMGNGFAGCVHFPHTAPCEVRVLMLLYSSKKKIFMGLIPYDQSGFVNGIRQVITNHKQVQQQKLEQQQRGMGGQQAPPGLGPILEDQARPSQNLLQLRPPQPQPQGTVGASGATGQPQPQGTAQPPPGAPQGPPGAASGPPPPGPILRPQNPGANPQLRSLLLNPPPPQTGVPPPQASLHHLQPPGAPALLPPPHQGLGQPQLGPPLLHPPPAQSWPAQLPPRAPLPGQMLLSGGPRGPVPQPGLQPSVMEDDILMDLI	–	binding (DUX4_ΔTAD (human) [2]): binds
DnaJ homolog subfamily C member 9 (DNAJC9) (protein, UniProt Q8WXX5 1-260) MGLLDLCEEVFGTADLYRVLGVRREASDGEVRRGYHKVSLQVHPDRVGEGDKEDATRRFQILGKVYSVLSDREQRAVYDEQGTVDEDSPVLTQDRDWEAYWRLLFKKISLEDIQAFEKTYKGSEEELADIKQAYLDFKGDMDQIMESVLCVQYTEEPRIRNIIQQAIDAGEVPSYNAFVKESKQKMNARKRRAQEEAKEAEMSRKELGLDEGVDSLKAAIQSRQKDRQKEMDNFLAQMEAKYCKSSKGGGKKSALKKEKK	binds	–
BANF1 (protein, UniProt O75531 1-89) MTTSQKHRDFVAEPMGEKPVGSLAGIGEVLGKKLEERGFDKAYVVLGQFLVLKKDEDLFREWLKDTCGANAKQSRDCFGCLREWCDAFL	binds	–

Where two headings read alike, the source gives them in different places. No constants are given. Whether binding was seen depends on the method and setting. Binding seen in cells or lysates may run through a third protein. These calls come from enrichment with a bait or labelling near it, and not all partners need be listed.
